# Values of other authors, collected in paper PMC11792066, “Development of benzofuran-derived sulfamates as dual aromatase-steroid sulfatase inhibitors (DASIs): design, synthesis and biological evaluation” (RSC Medicinal Chemistry, 2025).
# Target: aromatase (AROM)
# Design: method as in PMID 20148564
# Details: cited from earlier work
compound,measurement,value
CC(C)(C#N)c1cc(Cn2cncn2)cc(C(C)(C)C#N)c1 [Anastrozole],IC50,1.5 nM
